Results reported in the supplement of paper PMC10849652.
Some of the results follow.

Chains of the proteins cited; added tags and fusions are not shown. Lines headed by an entry give the natural chain unless they say otherwise; changes in a name come on top.
UniProt P46060: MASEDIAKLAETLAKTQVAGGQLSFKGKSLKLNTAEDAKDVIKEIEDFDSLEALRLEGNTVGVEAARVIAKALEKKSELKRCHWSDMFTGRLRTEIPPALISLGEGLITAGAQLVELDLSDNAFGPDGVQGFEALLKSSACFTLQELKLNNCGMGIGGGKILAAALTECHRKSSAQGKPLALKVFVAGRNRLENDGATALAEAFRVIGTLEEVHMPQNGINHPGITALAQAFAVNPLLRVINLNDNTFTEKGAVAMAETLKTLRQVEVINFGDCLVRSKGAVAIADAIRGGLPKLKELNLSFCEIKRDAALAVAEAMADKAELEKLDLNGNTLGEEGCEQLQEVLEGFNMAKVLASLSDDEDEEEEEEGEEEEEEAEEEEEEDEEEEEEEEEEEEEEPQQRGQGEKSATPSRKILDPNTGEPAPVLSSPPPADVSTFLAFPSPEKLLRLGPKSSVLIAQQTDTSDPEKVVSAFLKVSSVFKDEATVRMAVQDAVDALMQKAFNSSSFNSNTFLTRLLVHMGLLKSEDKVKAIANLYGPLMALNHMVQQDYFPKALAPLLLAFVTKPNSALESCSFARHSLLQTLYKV
UniProt P47897: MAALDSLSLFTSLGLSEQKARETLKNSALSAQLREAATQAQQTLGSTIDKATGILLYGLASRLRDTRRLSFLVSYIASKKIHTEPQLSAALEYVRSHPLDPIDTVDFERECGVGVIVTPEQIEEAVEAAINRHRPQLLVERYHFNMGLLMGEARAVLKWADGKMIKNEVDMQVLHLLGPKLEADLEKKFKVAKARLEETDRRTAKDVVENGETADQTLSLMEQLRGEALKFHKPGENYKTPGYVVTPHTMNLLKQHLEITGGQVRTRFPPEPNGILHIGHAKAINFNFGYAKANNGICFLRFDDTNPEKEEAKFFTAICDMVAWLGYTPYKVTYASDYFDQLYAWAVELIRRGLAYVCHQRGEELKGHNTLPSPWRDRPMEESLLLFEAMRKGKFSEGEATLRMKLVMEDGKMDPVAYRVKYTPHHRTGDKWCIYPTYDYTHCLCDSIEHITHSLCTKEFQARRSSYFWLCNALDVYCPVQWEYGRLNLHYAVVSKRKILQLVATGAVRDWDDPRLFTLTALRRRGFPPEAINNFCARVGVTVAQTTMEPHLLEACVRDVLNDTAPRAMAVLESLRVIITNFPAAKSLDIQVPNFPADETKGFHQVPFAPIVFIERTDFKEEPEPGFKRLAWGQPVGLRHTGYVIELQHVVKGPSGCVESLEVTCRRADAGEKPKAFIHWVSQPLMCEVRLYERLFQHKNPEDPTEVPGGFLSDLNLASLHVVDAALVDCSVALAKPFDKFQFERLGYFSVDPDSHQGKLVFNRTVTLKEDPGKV
UniProt Q9UJ41, whole entry, looked up: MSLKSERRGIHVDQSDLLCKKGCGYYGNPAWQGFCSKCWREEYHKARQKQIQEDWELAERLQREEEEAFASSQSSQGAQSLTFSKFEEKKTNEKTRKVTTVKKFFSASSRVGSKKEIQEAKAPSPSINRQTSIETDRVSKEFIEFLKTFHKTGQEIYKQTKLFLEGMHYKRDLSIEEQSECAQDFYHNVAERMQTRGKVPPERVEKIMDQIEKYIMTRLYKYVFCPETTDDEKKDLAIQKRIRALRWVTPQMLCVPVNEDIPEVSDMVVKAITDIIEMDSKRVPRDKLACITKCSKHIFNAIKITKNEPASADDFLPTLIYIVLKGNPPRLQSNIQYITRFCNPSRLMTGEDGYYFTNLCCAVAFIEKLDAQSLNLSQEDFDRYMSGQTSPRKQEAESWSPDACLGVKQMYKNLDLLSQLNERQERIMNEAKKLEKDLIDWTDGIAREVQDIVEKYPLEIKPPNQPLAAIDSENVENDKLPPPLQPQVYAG
UniProt Q9NP72: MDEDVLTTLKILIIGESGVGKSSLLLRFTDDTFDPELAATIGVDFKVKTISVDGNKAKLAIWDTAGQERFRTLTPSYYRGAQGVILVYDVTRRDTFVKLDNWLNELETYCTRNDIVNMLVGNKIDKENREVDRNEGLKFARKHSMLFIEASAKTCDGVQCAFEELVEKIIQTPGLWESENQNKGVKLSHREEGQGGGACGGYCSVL
UniProt Q9H6Z4: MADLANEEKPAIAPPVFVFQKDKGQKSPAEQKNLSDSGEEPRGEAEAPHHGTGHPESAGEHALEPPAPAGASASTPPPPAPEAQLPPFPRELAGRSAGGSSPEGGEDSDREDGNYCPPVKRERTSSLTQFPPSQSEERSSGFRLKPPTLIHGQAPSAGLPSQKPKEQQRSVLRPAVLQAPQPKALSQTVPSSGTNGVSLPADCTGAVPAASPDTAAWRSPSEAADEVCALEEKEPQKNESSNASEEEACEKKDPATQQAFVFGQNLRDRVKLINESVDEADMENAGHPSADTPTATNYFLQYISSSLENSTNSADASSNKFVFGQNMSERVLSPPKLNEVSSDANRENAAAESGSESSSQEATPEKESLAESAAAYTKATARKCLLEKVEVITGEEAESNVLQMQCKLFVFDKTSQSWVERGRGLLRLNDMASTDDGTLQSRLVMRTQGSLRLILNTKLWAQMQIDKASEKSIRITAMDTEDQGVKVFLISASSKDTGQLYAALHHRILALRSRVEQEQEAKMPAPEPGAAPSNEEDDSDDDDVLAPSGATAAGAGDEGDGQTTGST
UniProt Q92930: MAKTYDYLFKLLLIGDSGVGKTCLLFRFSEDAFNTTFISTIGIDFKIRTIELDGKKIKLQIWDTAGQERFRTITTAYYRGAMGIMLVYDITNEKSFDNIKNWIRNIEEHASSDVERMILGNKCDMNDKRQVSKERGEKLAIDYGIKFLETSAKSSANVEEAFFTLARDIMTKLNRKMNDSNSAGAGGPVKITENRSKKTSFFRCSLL
UniProt Q9Y6I8: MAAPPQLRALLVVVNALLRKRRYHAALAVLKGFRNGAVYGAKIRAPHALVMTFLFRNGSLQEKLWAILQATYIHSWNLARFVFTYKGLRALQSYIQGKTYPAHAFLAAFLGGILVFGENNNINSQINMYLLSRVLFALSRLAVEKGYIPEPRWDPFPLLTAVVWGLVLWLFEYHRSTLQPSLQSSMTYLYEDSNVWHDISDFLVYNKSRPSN
UniProt P54727: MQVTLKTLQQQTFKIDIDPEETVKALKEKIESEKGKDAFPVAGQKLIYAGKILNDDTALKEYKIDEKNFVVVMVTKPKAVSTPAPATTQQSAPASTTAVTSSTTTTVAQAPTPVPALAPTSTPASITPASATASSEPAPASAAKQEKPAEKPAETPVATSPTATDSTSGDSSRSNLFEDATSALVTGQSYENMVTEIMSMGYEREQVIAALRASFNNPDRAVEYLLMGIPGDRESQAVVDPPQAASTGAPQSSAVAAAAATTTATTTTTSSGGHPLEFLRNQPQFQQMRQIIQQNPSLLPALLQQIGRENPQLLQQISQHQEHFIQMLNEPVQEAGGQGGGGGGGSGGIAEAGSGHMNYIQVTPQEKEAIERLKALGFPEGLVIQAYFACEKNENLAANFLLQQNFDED
UniProt Q15311: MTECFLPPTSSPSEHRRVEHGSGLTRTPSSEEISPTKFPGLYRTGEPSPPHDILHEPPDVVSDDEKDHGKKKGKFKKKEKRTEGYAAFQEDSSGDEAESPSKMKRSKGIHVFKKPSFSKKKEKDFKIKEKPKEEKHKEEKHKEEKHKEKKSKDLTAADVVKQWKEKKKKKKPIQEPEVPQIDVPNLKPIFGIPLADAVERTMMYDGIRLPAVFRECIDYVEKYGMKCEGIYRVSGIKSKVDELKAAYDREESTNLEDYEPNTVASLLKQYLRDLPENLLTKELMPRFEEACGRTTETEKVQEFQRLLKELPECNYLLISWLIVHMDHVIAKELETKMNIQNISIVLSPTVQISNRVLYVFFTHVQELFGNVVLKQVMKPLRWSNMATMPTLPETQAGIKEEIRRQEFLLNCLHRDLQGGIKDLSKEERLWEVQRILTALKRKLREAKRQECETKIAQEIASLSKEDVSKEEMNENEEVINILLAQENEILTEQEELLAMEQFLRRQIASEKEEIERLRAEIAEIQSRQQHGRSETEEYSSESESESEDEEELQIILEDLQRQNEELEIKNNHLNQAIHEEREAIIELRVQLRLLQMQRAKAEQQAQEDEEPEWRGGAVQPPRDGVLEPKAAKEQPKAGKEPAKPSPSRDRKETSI
UniProt Q9NS91, whole entry, looked up: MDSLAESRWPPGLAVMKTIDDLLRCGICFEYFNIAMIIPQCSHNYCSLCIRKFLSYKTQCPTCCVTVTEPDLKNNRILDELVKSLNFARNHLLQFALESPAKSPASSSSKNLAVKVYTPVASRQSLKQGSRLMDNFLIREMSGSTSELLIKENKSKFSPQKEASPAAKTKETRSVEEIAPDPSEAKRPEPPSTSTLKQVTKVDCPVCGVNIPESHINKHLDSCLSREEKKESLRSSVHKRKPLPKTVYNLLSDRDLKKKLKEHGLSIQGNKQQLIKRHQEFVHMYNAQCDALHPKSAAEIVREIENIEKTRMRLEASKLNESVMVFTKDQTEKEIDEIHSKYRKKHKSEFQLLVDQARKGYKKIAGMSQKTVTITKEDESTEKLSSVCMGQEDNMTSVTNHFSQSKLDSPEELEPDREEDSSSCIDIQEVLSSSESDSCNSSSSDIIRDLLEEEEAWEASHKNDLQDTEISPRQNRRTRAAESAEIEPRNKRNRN
UniProt P61224: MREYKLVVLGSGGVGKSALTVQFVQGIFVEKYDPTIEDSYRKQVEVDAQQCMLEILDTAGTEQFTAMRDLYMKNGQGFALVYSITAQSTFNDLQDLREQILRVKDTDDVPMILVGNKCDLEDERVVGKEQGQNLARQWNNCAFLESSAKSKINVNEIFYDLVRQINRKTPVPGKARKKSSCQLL
UniProt Q9H2T7: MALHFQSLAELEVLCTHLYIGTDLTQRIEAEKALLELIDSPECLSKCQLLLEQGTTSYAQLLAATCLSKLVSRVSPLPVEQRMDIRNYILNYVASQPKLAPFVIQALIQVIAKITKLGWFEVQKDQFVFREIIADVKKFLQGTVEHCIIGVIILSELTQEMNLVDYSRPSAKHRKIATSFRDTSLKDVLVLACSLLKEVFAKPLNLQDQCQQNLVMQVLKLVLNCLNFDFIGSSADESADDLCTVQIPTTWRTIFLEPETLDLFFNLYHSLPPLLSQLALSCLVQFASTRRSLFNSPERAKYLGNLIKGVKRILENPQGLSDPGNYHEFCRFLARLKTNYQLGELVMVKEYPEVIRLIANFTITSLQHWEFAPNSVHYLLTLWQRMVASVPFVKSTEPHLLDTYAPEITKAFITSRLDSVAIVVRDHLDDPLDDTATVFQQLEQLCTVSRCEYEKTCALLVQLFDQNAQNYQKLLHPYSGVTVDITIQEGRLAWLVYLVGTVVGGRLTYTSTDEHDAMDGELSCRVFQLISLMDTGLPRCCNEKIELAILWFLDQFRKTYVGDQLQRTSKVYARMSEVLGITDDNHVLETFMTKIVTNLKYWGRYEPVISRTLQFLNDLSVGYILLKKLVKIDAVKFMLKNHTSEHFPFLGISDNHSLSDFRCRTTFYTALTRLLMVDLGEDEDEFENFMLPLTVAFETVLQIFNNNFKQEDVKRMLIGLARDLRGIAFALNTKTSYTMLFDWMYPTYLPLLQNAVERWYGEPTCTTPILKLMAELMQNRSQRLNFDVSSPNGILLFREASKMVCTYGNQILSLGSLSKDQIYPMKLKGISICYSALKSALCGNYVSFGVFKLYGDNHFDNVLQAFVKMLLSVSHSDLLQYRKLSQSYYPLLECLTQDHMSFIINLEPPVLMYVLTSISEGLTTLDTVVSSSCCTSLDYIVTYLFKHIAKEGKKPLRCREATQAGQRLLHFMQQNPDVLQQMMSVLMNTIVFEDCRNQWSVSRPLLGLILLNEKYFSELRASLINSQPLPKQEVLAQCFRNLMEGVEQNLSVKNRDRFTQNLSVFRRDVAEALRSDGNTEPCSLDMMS
UniProt Q06609, whole entry, looked up: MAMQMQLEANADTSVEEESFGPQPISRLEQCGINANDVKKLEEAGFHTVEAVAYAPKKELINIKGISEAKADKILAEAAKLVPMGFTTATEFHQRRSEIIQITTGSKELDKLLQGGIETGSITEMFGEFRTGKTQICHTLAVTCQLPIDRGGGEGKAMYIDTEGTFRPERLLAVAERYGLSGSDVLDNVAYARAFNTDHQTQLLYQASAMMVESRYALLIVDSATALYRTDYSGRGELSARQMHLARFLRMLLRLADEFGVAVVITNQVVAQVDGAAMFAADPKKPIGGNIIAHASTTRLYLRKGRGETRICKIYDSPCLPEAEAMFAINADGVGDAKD
UniProt P78406: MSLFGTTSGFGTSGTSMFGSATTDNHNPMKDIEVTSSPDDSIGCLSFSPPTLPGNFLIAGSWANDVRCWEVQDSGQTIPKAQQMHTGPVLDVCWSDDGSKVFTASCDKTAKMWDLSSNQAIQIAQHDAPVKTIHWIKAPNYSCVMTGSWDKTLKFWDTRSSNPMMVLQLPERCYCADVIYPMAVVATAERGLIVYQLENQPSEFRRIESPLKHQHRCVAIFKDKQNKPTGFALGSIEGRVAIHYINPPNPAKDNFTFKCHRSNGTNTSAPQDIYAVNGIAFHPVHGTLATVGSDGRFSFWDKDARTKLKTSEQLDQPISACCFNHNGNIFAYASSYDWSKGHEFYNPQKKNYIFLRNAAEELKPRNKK

Key:
Experiment in all cases: log2 fold change, soluble protein after heating vs DMSO (PISA); higher = thermal stabilisation; K562 lysate, 10 uM; active = over 0.2 and 3.5 SD of the protein, either way, in both replicates (recomputed)
ibrutinib = compound: C=CC(=O)N1CCC[C@@H](n2nc(-c3ccc(Oc4ccccc4)cc3)c3c(N)ncnc32)C1 [ibrutinib]
Summary of the method: (§1)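 K562 pellets were dounce-homogenised in PBS pH 7.4 with 1 mM MgCl2, and the crude extract at 1 mg/mL protein was treated with 10 μM compound for 30 min. Aliquots were heated for 3 min across 48°C-58°C, pooled, and brought to 0.5% NP-40 at 4°C; soluble protein was the supernatant after 21,000xg for 90 min. Soluble protein was quantified by TMTpro 16plex LC-MS/MS with channel sums equalised, and reported as log2 fold change in thermal stability against DMSO controls, with values from duplicates.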

[1] = compound: CC(=O)c1cnc2ccc(-c3cc(Cl)c(O)c(Cl)c3)nc2c1N[C@H]1CC[C@H](CN(C)C)CC1
Summary of the method: as §1

ralimetinib = compound: CC(C)(C)Cn1c(N)nc2ccc(-c3[nH]c(C(C)(C)C)nc3-c3ccc(F)cc3)nc21 [ralimetinib]
Summary of the method: as §1

[2] = compound: CC(C)(O)CC(=O)NCCn1ccc2ncnc(Nc3ccc(Oc4cccc(C(F)(F)F)c4)c(Cl)c3)c21
Summary of the method: as §1

[3] = compound: CC(C)C1=C2N=C(C=C(N2N=C1)NCC3=CC=CC=C3)NCCCCCCN
Summary of the method: as §1

[4] = compound: CC1=C(C(CC(=O)N1)C2=CC=C(C=C2)C(F)(F)F)C(=O)NC3=C(C=C4C(=C3)C=NN4)F
Summary of the method: as §1

[5] = compound: CC1=C(C2=C(C=C1)C(=O)C3=CC=CC=C3N2CCCN)C
Summary of the method: as §1

[6] = compound: CC1=C(C=C(C=C1)NC(=O)C2=CC(=CC=C2)C(C)(C)C#N)NC3=CC4=C(C=C3)N=CN(C4=O)C
Summary of the method: as §1

[7] = compound: CC1=C(C=C(C=C1)NC(=O)C2=CC(=CC=C2)N(C)C)NC(=O)C3=CC=C(C=C3)O
Summary of the method: as §1

[8] = compound: CC1=CC=C(C=C1)SC2=C3C=C(SC3=CN=C2)C(=O)N
Summary of the method: as §1

Measured: log2 fold change

RAB8A (UniProt P61006)
inactive: ibrutinib -0.001 | [1] 0.002 | ralimetinib 0.024 | [2] 0.056 | [3] -0.041 | [4] 0.005 | [5] 0.015 | [6] -0.11 | [7] -0.021 | [8] 0.015

RAB32 (UniProt Q13637)
inactive: ibrutinib 0.08 | [1] 0.037 | ralimetinib -0.008 | [2] -0.025 | [3] 0.008 | [4] 0.045 | [5] 0 | [6] 0.027 | [7] 0.01 | [8] -0.043

RANGAP1 (UniProt P46060)
inactive: ibrutinib -0.013 | [1] -0.016 | ralimetinib -0.011 | [2] 0.008 | [3] -0.004 | [4] -0.013 | [5] 0.006 | [6] -0.002 | [7] 0.005 | [8] 0

QARS (UniProt P47897)
inactive: ibrutinib -0.014 | [1] 0.001 | ralimetinib 0.027 | [2] 0.015 | [3] 0.005 | [4] -0.039 | [5] 0.014 | [6] -0.013 | [7] 0.019 | [8] 0.032

RABGEF1 isoform 3 (UniProt Q9UJ41)
inactive: ibrutinib -0.003 | [1] -0.006 | ralimetinib -0.004 | [2] -0.015 | [3] -0.035 | [4] -0.016 | [5] -0.021 | [6] -0.002 | [7] 0.014 | [8] -0.024

RAB18 isoform 2 (UniProt Q9NP72)
inactive: ibrutinib -0.012 | [1] -0.02 | ralimetinib -0.011 | [2] 0.024 | [3] 0.012 | [4] 0.008 | [5] -0.048 | [6] -0.026 | [7] 0.019 | [8] -0.045

RANBP3 (UniProt Q9H6Z4)
inactive: ibrutinib 0.003 | [1] 0.001 | ralimetinib 0.001 | [2] -0.012 | [3] -0.028 | [4] -0.011 | [5] -0.054 | [6] 0.029 | [7] -0.005 | [8] -0.02

RACGAP1 (UniProt Q9H0H5)
inactive: ibrutinib -0.007 | [1] -0.014 | ralimetinib 0.012 | [2] 0.008 | [3] 0.012 | [4] 0.064 | [5] -0.02 | [6] 0.037 | [7] 0.039 | [8] -0.115

RAB8B (UniProt Q92930)
inactive: ibrutinib -0.03 | [1] -0.018 | ralimetinib -0.035 | [2] -0.013 | [3] -0.003 | [4] 0.051 | [5] -0.001 | [6] 0.01 | [7] 0.099 | [8] -0.06

RACK1 (UniProt P63244)
inactive: ibrutinib 0.003 | [1] 0.012 | ralimetinib 0.004 | [2] 0.032 | [3] -0.002 | [4] -0.019 | [5] 0.011 | [6] -0.015 | [7] -0.006 | [8] 0.04

R3HCC1L, A0A384DVK4
inactive: ibrutinib -0.04 | [1] -0.051 | ralimetinib 0.06 | [2] -0.026 | [3] 0.08 | [4] 0.009 | [5] 0 | [6] 0.011 | [7] 0.012 | [8] -0.003

QRSL1 (UniProt Q9H0R6)
inactive: ibrutinib -0.171 | [1] -0.059 | ralimetinib 0.018 | [2] -0.064 | [3] 0.066 | [4] -0.003 | [5] -0.073 | [6] -0.041 | [7] 0.027 | [8] 0.076

PYCR1 isoform 3 (UniProt P32322)
inactive: ibrutinib 0.015 | [1] 0 | ralimetinib 0.002 | [2] -0.02 | [3] -0.016 | [4] 0.009 | [5] -0.001 | [6] 0.001 | [7] -0.015 | [8] -0.043

RAB7A (UniProt P51149)
inactive: ibrutinib -0.04 | [1] 0.012 | ralimetinib -0.031 | [2] -0.052 | [3] -0.014 | [4] -0.009 | [5] -0.002 | [6] -0.018 | [7] 0.001 | [8] 0.004

PXMP4 (UniProt Q9Y6I8)
inactive: ibrutinib -0.022 | [1] 0 | ralimetinib 0.012 | [2] -0.076 | [3] -0.18 | [4] -0.008 | [5] 0.066 | [6] 0.234 | [7] -0.007 | [8] 0.023

RAD23B (UniProt P54727)
inactive: ibrutinib -0.011 | [1] 0.005 | ralimetinib 0.004 | [2] -0.012 | [3] -0.016 | [4] -0.029 | [5] -0.015 | [6] 0.031 | [7] 0.013 | [8] -0.034

RALBP1 (UniProt Q15311)
inactive: ibrutinib 0.044 | [1] 0.028 | ralimetinib -0.006 | [2] -0.035 | [3] -0.001 | [4] 0.008 | [5] -0.009 | [6] 0.033 | [7] 0.055 | [8] 0

Quoted at random: two entries already listed
RANBP3 (UniProt Q9H6Z4)
inactive: ibrutinib 0.003 | [1] 0.001 | ralimetinib 0.001 | [2] -0.012 | [3] -0.028 | [4] -0.011 | [5] -0.054 | [6] 0.029 | [7] -0.005 | [8] -0.02

RAB8A (UniProt P61006)
inactive: ibrutinib -0.001 | [1] 0.002 | ralimetinib 0.024 | [2] 0.056 | [3] -0.041 | [4] 0.005 | [5] 0.015 | [6] -0.11 | [7] -0.021 | [8] 0.015

Further results

RAB6D (UniProt Q53S08)
inactive: ibrutinib 0 | [1] 0.013 | ralimetinib -0.011 | [2] -0.087 | [3] 0.014 | [4] -0.113 | [5] -0.057 | [6] 0.009 | [7] 0.009 | [8] -0.026

RAD18 (UniProt Q9NS91)
inactive: ibrutinib 0.027 | [1] 0.029 | ralimetinib 0.047 | [2] -0.007 | [3] -0.026 | [4] -0.018 | [5] -0.022 | [6] -0.031 | [7] 0.002 | [8] 0.042

RAB21 (UniProt Q9UL25)
inactive: ibrutinib 0.026 | [1] -0.004 | ralimetinib 0.057 | [2] -0.02 | [3] -0.002 | [4] 0.019 | [5] 0.021 | [6] -0.023 | [7] -0.002 | [8] 0.015

RAP1B (UniProt P61224)
inactive: ibrutinib -0.024 | [1] -0.005 | ralimetinib 0.051 | [2] -0.03 | [3] -0.014 | [4] -0.01 | [5] 0.004 | [6] 0.008 | [7] -0.017 | [8] -0.008

RAB3IL1 (UniProt E9PK89)
inactive: ibrutinib 0.066 | [1] 0.045 | ralimetinib -0.028 | [2] -0.08 | [3] -0.069 | [4] 0.052 | [5] 0.071 | [6] 0.025 | [7] 0.135 | [8] -0.031

RAB11FIP1 (UniProt Q6WKZ4)
inactive: ibrutinib 0.015 | [1] -0.011 | ralimetinib 0.031 | [2] -0.012 | [3] 0.003 | [4] 0.004 | [5] 0.001 | [6] 0.02 | [7] 0.033 | [8] -0.002

RANBP17 (UniProt Q9H2T7)
inactive: ibrutinib 0.055 | [1] 0.023 | ralimetinib -0.046 | [2] -0.057 | [3] -0.035 | [4] -0.049 | [5] 0.011 | [6] 0.048 | [7] 0.013 | [8] 0.012

RAB10 (UniProt P61026)
inactive: ibrutinib 0.003 | [1] -0.013 | ralimetinib -0.01 | [2] 0.017 | [3] 0.026 | [4] 0.038 | [5] 0.006 | [6] -0.051 | [7] -0.057 | [8] -0.017

QDPR (UniProt P09417)
inactive: ibrutinib 0.038 | [1] -0.008 | ralimetinib -0.021 | [2] -0.007 | [3] 0 | [4] -0.003 | [5] -0.004 | [6] 0.005 | [7] 0.028 | [8] 0.018

RAPGEF1 isoform 3 (UniProt Q13905)
inactive: ibrutinib 0.008 | [1] -0.011 | ralimetinib -0.055 | [2] 0.018 | [3] -0.066 | [4] -0.059 | [5] 0.007 | [6] -0.059 | [7] 0.079 | [8] -0.019

RAD51 (UniProt Q06609)
inactive: ibrutinib -0.012 | [1] 0.024 | ralimetinib 0.032 | [2] -0.034 | [3] 0.069 | [4] -0.089 | [5] -0.064 | [6] -0.049 | [7] 0.009 | [8] 0.014

RAE1 (UniProt P78406)
inactive: ibrutinib -0.033 | [1] -0.01 | ralimetinib 0.007 | [2] 0.185 | [3] -0.007 | [4] -0.022 | [5] 0.012 | [6] -0.064 | [7] 0.011 | [8] 0.023

QTRT1 (UniProt Q9BXR0)
inactive: ibrutinib 0.057 | [1] -0.003 | ralimetinib 0.015 | [2] -0.029 | [3] 0.034 | [4] 0.006 | [5] 0.018 | [6] -0.009 | [7] 0.001 | [8] -0.018
